Assay results published in PMC6237183 (Nature structural & molecular biology, 2018).

By UniProt entry, the sequences of proteins in these tests, tags left out.
UniProt P41595, whole entry L362F: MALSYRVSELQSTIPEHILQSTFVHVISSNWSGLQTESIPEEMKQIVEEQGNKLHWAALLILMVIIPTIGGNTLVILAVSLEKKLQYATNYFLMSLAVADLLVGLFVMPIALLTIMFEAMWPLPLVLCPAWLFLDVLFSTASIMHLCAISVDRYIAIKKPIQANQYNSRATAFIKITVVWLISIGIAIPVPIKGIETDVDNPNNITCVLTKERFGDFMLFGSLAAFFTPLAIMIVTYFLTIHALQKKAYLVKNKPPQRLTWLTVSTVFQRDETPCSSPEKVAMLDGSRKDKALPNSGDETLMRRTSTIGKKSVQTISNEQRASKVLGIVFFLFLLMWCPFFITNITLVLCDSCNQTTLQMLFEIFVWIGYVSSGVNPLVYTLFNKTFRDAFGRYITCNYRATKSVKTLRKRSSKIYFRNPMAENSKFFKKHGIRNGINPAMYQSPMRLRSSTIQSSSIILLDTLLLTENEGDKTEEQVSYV
UniProt P41595, whole entry: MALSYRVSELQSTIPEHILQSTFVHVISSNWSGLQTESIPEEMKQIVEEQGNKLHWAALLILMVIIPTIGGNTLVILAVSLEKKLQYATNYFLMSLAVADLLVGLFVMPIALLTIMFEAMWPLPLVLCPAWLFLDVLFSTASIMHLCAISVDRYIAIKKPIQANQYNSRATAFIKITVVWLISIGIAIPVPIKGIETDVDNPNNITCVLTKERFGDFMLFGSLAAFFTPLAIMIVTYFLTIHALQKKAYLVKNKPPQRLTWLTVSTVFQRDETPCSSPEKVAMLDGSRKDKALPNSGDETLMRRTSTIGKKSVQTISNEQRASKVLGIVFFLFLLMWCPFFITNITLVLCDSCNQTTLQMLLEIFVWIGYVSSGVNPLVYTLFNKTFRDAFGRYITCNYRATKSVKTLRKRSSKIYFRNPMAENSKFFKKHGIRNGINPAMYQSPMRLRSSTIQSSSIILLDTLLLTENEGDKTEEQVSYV
UniProt P41595, whole entry L362Y: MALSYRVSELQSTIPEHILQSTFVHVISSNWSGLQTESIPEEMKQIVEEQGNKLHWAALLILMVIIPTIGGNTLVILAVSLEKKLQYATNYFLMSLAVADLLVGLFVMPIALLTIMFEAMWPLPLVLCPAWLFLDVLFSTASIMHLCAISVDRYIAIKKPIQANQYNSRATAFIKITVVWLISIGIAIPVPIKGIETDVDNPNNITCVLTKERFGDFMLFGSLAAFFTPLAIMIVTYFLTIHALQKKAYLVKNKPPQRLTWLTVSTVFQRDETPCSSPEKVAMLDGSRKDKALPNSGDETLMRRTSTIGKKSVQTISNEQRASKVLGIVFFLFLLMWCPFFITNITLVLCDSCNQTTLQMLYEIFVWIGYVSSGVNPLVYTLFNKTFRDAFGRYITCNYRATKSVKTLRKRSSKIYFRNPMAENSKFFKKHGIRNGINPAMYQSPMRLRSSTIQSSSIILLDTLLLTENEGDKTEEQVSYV
UniProt P41595, whole entry L362N: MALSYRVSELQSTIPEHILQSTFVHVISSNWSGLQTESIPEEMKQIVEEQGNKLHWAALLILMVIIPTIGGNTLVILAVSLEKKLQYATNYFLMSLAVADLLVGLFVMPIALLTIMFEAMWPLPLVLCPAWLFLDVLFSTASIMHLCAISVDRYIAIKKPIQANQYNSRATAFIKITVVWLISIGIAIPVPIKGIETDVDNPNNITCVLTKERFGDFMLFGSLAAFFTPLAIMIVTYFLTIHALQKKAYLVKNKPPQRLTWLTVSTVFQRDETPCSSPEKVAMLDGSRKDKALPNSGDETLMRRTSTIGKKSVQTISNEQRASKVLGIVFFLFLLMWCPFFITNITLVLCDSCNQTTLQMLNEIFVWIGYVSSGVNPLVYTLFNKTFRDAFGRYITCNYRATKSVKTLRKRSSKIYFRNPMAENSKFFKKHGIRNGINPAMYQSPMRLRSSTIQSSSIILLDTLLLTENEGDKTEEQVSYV

Columns and labels:
5-HT2BR L362F^7.35 [1] = target: T1, 5-HT2BR L362F^7.35 (Homo sapiens, UniProt P41595, L362F); details: L362F^7.35 mutant
5-HT2BR L362F^7.35 [2] = target: T1, 5-HT2BR L362F^7.35; test: Gq-mediated calcium flux FLIPR assay; details: read-out: Gq calcium flux Emax
5-HT2BR wild-type = 5-HT2BR wild-type (Homo sapiens, UniProt P41595); test: Gq-mediated calcium flux FLIPR assay
5-HT2BR L362Y^7.35 = 5-HT2BR L362Y^7.35 (Homo sapiens, UniProt P41595, L362Y); test: cell-based; details: read-out: Gq calcium flux Emax
5-HT2BR L362N^7.35 = 5-HT2BR L362N^7.35 (Homo sapiens, UniProt P41595, L362N); test: cell-based; details: read-out: Gq calcium flux Emax

## CCN(CC)C(=O)N[C@H]1C=C2c3cccc4[nH]cc(c34)C[C@H]2N(C)C1 [lisuride]
5-HT2BR L362F^7.35 [1]
  β-arrestin recruitment agonism: did not restore
5-HT2BR L362F^7.35 [2]
  Emax: 60%
5-HT2BR wild-type
  Gq calcium flux agonist activity: lack of lisuride agonist activity
5-HT2BR L362Y^7.35
  Emax: 69%
5-HT2BR L362N^7.35
  Emax: 41%
